PubChem BioAssay AID1053209 | Peter MacCallum Cancer Centre | 2014

- Purpose: 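Knock-downs that sensitise mouse osteosarcoma cells to doxorubicin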 (follow-up of hits)
- System: mouse primary osteosarcoma cells
- Knock-down reagent: single siRNA against mouse genes, 25 nM (text also states 40 nM)
- Duration: about 120 h (48 h before drug, then 72 h with drug)
- Treatment: doxorubicin 100 nM (about IC30-40), added 48 h after transfection, for 72 h
- Read-out: 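Viability measured by ATP luminescence with and without doxorubicin, each replicate scaled to non-targeting siRNA NT1, averaged over two replicates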
- Reading the numbers: viability with doxorubicin, vs NT1: higher = more viable cells under doxorubicin; viability without drug, vs NT1: higher = more viable cells without drug
- Hit rule: 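Counted as active (class LC dox) if viability falls to 0.7 of NT1 or below under doxorubicin but stays within 0.7 to 1.1 without drug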
Shown is a random part of about 1,580 reagents. 207 of them (13%) count as active. 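Rows are single siRNAs; four siRNAs per gene were tested, a gene counting as confirmed only when at least two agree.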 The numbers tell different reagents against one gene apart. Further read-outs or replicates are left out here.

The opening 3 records, ahead of the listing:
no.	Gene	reagent	combined effect class	viability with doxorubicin, vs NT1	viability without drug, vs NT1	call
1	Ndufa8	1	normal viability with and without drug	0.75	0.98	inactive
2	Ndufa8	2	normal viability with and without drug	0.96	0.94	inactive
3	Ndufa8	3	normal viability with and without drug	0.9	0.98	inactive

The list itself, repeating the preview:
no.	Gene	reagent	combined effect class	viability with doxorubicin, vs NT1	viability without drug, vs NT1	call
1	Ndufa8	1	normal viability with and without drug	0.75	0.98	inactive
2	Ndufa8	2	normal viability with and without drug	0.96	0.94	inactive
3	Ndufa8	3	normal viability with and without drug	0.9	0.98	inactive
4	Ndufa8	4	normal viability with and without drug	0.85	0.96	inactive
5	Or6c69b	1	normal viability with and without drug	1.04	1.05	inactive
6	Or6c69b	2	normal viability with and without drug	1.02	1	inactive
7	Or6c69b	3	normal viability with and without drug	1.01	1.02	inactive
8	Or6c69b	4	normal viability with and without drug	0.82	0.86	inactive
9	Topbp1	1	normal viability with and without drug	0.77	0.94	inactive
10	Topbp1	2	normal viability with and without drug	0.79	0.89	inactive
11	Topbp1	3	normal viability with and without drug	0.76	0.84	inactive
12	Topbp1	4	low viability only with doxorubicin; normal without drug	0.68	0.82	active
13	Kcnk10	1	high viability only without drug	0.97	1.19	inactive
14	Kcnk10	2	normal viability with and without drug	0.78	0.88	inactive
15	Kcnk10	3	normal viability with and without drug	0.75	0.82	inactive
16	Kcnk10	4	high viability only with doxorubicin	1.1	0.94	inactive
17	Perm1	1	high viability only with doxorubicin	1.17	1.08	inactive
18	Perm1	2	low viability only with doxorubicin; normal without drug	0.7	0.93	active
19	Perm1	3	normal viability with and without drug	0.8	0.94	inactive
20	Perm1	4	normal viability with and without drug	0.72	0.89	inactive
21	Rasgef1b	1	high viability only with doxorubicin	1.15	0.94	inactive
22	Rasgef1b	2	normal viability with and without drug	0.84	0.97	inactive
23	Rasgef1b	3	normal viability with and without drug	1.02	0.97	inactive
24	Rasgef1b	4	normal viability with and without drug	0.86	0.9	inactive
